In JP2018158894A:
These are yes or no findings as the source states them, for the method shown. Some binding calls cover weakened binding; strength is not graded here.

Molecular target: T1, LGR6 on HCT116 cells (human colon cancer cell line) (human) (UniProt Q9HBX8)
T1 sequence (looked up): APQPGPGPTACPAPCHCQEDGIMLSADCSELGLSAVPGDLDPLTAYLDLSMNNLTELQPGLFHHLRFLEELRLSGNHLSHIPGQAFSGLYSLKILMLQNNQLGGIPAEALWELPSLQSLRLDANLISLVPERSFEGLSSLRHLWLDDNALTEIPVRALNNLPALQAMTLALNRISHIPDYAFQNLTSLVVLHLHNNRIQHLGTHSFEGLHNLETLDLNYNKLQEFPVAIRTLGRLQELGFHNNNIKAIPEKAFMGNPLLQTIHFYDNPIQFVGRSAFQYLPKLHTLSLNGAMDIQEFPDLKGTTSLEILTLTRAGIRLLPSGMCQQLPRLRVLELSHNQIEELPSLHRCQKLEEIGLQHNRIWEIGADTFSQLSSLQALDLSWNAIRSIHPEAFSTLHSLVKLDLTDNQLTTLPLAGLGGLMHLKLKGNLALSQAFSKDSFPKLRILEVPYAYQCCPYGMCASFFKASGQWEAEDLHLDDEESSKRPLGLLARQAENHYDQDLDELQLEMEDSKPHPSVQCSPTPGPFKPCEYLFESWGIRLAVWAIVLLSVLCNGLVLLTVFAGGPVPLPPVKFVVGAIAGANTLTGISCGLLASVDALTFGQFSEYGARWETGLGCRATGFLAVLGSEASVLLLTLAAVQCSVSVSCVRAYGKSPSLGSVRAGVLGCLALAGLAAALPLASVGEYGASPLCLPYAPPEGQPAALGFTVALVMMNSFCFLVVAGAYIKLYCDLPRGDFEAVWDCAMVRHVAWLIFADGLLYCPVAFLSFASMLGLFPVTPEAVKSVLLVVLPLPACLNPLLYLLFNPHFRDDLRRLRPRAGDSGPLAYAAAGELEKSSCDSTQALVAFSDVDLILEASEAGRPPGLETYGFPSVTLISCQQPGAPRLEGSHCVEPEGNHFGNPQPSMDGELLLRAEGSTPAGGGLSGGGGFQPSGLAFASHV
Test: immunofluorescence staining of HCT116 cells

B1: m164抗体 (anti-LGR6 mouse monoclonal antibody produced by hybridoma clone 164) (antibody, V domains shown)
VH: EVQLQQSGPELVKPGASVKISCKTSGYTFTEYTMHWVKQSHGKSLEWIGGINPYNRVSSYNQRFKGKATLTVDKSSSTAYMELRSLTSEDSAVYYCARRYDVFDSWGQGTTLTVSS
VL: DIVMSQSPSSLAVSVGEKVSMSCKSSQSLLYSSNQKNYLAWYQQKPGQSPKLLISWASTRESGVPARFTGSGSGTDFTLTISSVRAEDLAVYYCQQHFNYPYTFGGGAKLEMK
  binding: binds
